# Laboratory results: PubChem BioAssay AID488966 (Southern Research Specialized Biocontainment Screening …, 2010)
# Out of some 340,000 compounds screened, about 55 (0.02%) were called active. The shares of active, inactive and inconclusive entries below differ from those in the screen.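 Rule for the calls: active = phage lysis inhibition, versus mean bacterial control, above a set limit; inconclusive = no clear call, values can overlap the other calls; inactive = the rest.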
# Assay: protection from phage-mediated lysis, alamar blue read-out – E. coli UTI89, K1F phage, bacterial capsule biogenesis inhibitors (AID 488966);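 note: capsule biogenesis inhibitors block K1F phage lysis so surviving cells raise fluorescence; higher fluorescence means more inhibition of phage lysis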
# Settings: 2 h, at 100 µM, active compounds read high
row,SMILES,inhibition
1,CN(C)CC1CCCCC1=O (stereo unspecified),inconclusive: 20.1%
2,COc1ccc2c(c1)C13CCCC[C@@H]1C(C2)N(C)CC3 (stereo partly specified),inconclusive: 19.6%
3,CCCCc1ccc2[nH]cc(CCN)c2c1,inconclusive: 8.65%
4,CN1[C@@H]2CC[C@H]1CC(OC1c3ccccc3CCc3ccccc31)C2 (stereo partly specified),inconclusive: 17.2%
5,O=C(O)C1CC2(Cl)C(Cl)=C(Cl)C1(Cl)C2(Cl)Cl (stereo unspecified),inconclusive: 67.7%
6,O=C(Nc1ccc(Cl)cc1)N1CC1,inconclusive: 15.6%
7,c1cnc(N2CCNCC2)nc1,inconclusive: 15.2%
8,COc1cccc(C(=O)C2CN(C)CC2c2ccc(Cl)cc2)c1 (stereo unspecified),inconclusive: 21.3%
9,CCCCN(Cc1ccccc1)C1CCN(CCc2ccccc2)CC1,inconclusive: 17.2%
10,C[C@]12CCC3C(CC[C@H]4C[C@@H](O)CC[C@]34C)C1CC[C@@H]2OC(=O)[C@H](N)CCCCN (stereo partly specified),inconclusive: 15.3%
11,Cc1[nH]nc2ccc(-c3cncc(OC[C@@H](N)Cc4c[nH]c5ccccc45)c3)cc12,inconclusive: 15.6%
12,CC/C(=C(\c1ccccc1)c1ccc(OCCN(C)C)cc1)c1ccccc1,inconclusive: 17.9%
13,O=C(OC1CCN(CCCl)CC1)C(c1ccccc1)c1ccccc1,inconclusive: 20.9%
14,COc1ccccc1Sc1ccccc1CC(C)N (stereo unspecified),inconclusive: 15.5%
15,COc1ccccc1C1CC2CCC(C1OC(C)=O)N2Cc1ccccc1 (stereo unspecified),inconclusive: 16.8%
16,CCOc1ccc(-n2c(-c3ccoc3)nc3ccccc3c2=O)cc1,inconclusive: 17.3%

# From compound 11 to 15, copied from above:
row,SMILES,inhibition
11,Cc1[nH]nc2ccc(-c3cncc(OC[C@@H](N)Cc4c[nH]c5ccccc45)c3)cc12,inconclusive: 15.6%
12,CC/C(=C(\c1ccccc1)c1ccc(OCCN(C)C)cc1)c1ccccc1,inconclusive: 17.9%
13,O=C(OC1CCN(CCCl)CC1)C(c1ccccc1)c1ccccc1,inconclusive: 20.9%
14,COc1ccccc1Sc1ccccc1CC(C)N (stereo unspecified),inconclusive: 15.5%
15,COc1ccccc1C1CC2CCC(C1OC(C)=O)N2Cc1ccccc1 (stereo unspecified),inconclusive: 16.8%
